Laboratory results from patent publication US20240024233A1, “Oral Hydrogel Compositions and Uses” (Colgate-Palmolive Company, priority 2020, published 2024).
The name of at least one read-out is uncertain.

Assay: Tetrahydrocurcumin solubility (saturation) in hydrogel formulations, UV 280 nm
Type: physicochemical
Conditions: in hydrogel compositions investigated
Protocol: Tetrahydrocurcumin is a highly insoluble drug. It has water solubility of about 6 μg/mL, and this has severely limited attempts to evaluate its in vitro or in vivo potency as a drug because of the difficulty of formulating compositions which can effectively deliver it to body tissues. It is thus a useful reference for compositions intended to deliver low-solubility active agents.
A range of hydrogel formulations are prepared in cold (4° C.) deionized water. Each cold formulation liquid is loaded with tetrahydrocurcumin (0.3 mg/mL of gel) via dispersion with a Speed Mixing apparatus (FlackTek, Inc). Samples are left to interact at 4° C. for 48 hours. Formulations are centrifuged at 10,000 rpm for 60 seconds to separate undissolved active. The saturation of active is determined via UV absorbance at 280 nm.
Tetrahydrocurcumin is found to be soluble in the above tested gels at the following saturation concentrations: […]

COc1cc(CCC(=O)CC(=O)CCc2ccc(O)c(OC)c2)ccc1O [Tetrahydrocurcumin]
increase of solubility over saturation point in water: up to 35 times
